# Measured values: patent US9393308B2, “Micelle structure of nano preparation for diagnosis or treatment of cancer disease and preparation method thereof” (KOREA ADVANCED INSTITUTE OF SCIENCE AND TECHNOLOGY, priority 2013, dated 2016)
# Test system: mitochondrion of U251MG, which is a human malignant glioma cell
# Assay: Distribution pattern of nanopreparation in intracellular organelles (confocal/multiphoton laser scanning microscopy)
# Assay type: cell-based
# Details: 5 μM, 2 hours, Mito Tracker deep red FM
structure (smiles),measurement,value
"Cc1cc(O)c2c(=O)c3c(O)cc(O)c4c5c(O)cc(O)c6c(=O)c7c(O)cc(C)c8c1c2c(c34)c(c78)c65 [Comparative Example 2, Hypericin]",distribution of hypericin in mitochondria (image),coexist only in a portion of mitochondria
